# Primary screen of a compound library

Source: ChEMBL document CHEMBL3988442, “University of Dundee, Small-Polar-MMV Screening Library” (2021).

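Phenotypic screen: M. tuberculosis growth, glucose 7H9 medium, 3 days; the read-out is not stated. Concentration: 500 µM. The record gives no direction; compounds that gave an IC50 in retests scored well above the rest, so higher reads as more growth inhibition. Size under these conditions: about 18,000 compounds, about 1,400 of them at 50% or above in at least one test.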

Values are the deposited “Percent Effect”, in %. The record does not define 0% and 100%; most values in the screen are far below 50% and negative numbers occur (in some assays of this library far below -100). The compounds are a random part of those screened.

structure | Percent Effect
O=C(CSC1=NCCN1)Nc1ccc(Cl)cc1 | 25.59%
CCN1CCN(C(=O)N(CC)CC)CC1 | -3.33%
c1ccc2oc(CN3CCNCC3)cc2c1 | 40.85%
Cc1nn(C)cc1NC(=O)N1CCOC2(CCC2)C1 | 23.98%
CC(C)CC(=O)N1CCN(C(=O)N2CCCCC2)CC1 | -2.474%
COCC(=O)N1CCCN(CCC(C)SC)CC1 (configuration not stated) | 9.4%
NCc1ccc(-c2nc3cnccc3o2)cc1 | 3.069%
COC(=O)C(C)(C)NC(=O)c1occc1Br | 2.874%
O=C(NCCn1ccnc1)c1ccc(C(F)(F)F)nc1 | 13.82%
Cn1cccc1C1COCCN1 (configuration not stated) | -15.27%
O=C(NCC1CCN(C2CC2)C1)Nc1nccs1 (configuration not stated) | 38.62%
CC(C)CC(O)CNC(=O)c1ccccc1O (configuration not stated) | -1.14%
Cc1cccnc1CCO | 0.4935%
Cc1ccc(-c2cnnc(N)n2)cc1 | 6.174%
CS(=O)(=O)CC(=O)NCCc1nc2ccccc2o1 | 14.37%
O=C(NC1CCN(C2CC2)CC1)c1ccncc1 | 26.42%
CC1CCC(NCCO)CC1 (configuration not stated) | 1.679%
COCC(C)NC(=O)CNc1ccccc1OC(F)F (configuration not stated) | 19.24%
COC(=O)CNc1cc(F)ccc1-n1cccn1 | 23.21%
CC(C)CNC(=O)CC1Nc2ccccc2NC1=O (configuration not stated) | 25.11%
CC(C)Oc1cccc(-c2cnn(CCC(N)=O)c2)c1 | 68.53%
CCCNCC(=O)Nc1ccccc1OC | 30.88%
Cc1csc2nc(CSCC(=O)NC3CC3)cc(=O)n12 | -17.44%
CNC(=O)c1ccc(S(=O)(=O)N2CCC=C(F)C2)cc1 | 14.79%
CCn1nc(C)c(CO)c1C | -2.56%
Cn1ccnc1CN1CCNCC1 | 0.03635%
Cc1nn(C)c(C)c1CC(=O)Nc1cccnc1O | -6.815%
OCC1CCCN(Cc2ccc(O)cc2)C1 (configuration not stated) | 8.608%
N[C@H]1C[C@@H](c2ccccc2)C1 | 29.19%
O=C(NC1CCCSC1)N(CCO)C1CC1 (configuration not stated) | 0.6736%
CC1CCN(C(=O)c2occc2Br)CCS1(=O)=O (configuration not stated) | 1.021%
O=C(C1CCOCC1)N1CCCC(c2ncc[nH]2)C1 (configuration not stated) | -3.573%
Cc1cc(C(=O)OC(C)c2ccccn2)cc(O)n1 (configuration not stated) | -38.4%
N[C@H](c1ccccc1)[C@@H](O)c1ccccc1 | 16.88%
O=C(NCc1nnc2n1CCCCC2)c1ccoc1 | 1.34%
CCC(C)(C)NC(=O)c1ccccc1S(=O)(=O)CC | 0.5768%
CC1CCCCN(CCC(=O)N2CCN(C)CC2)C1 (configuration not stated) | 17.52%
O=C(CN1CCCC1)N1CCN(c2ccccc2)CC1 | 27.74%
O[C@H]1C[C@@H](c2cc(NCCn3cnnn3)ncn2)C1 | 6.189%
CC(CCN)CCO (configuration not stated) | -2.795%
Cn1ccc(C(=O)N2CCCC2c2cccs2)cc1=O (configuration not stated) | -1.749%
COCc1noc(CN2CCNCC2)n1 | 1.79%
NC(=O)C1CCCN(Cc2ccc(F)cc2Cl)C1 (configuration not stated) | 16.9%
CN1CCC(NC(=O)C2CCCCC2)CC1 | 8.637%
Cn1c(CNC(=O)C2CCCOC2)nnc1C1CCC1 (configuration not stated) | 1.037%
O=C(NCCSCCCO)c1cccc2cc[nH]c12 | -6.146%
O=C(c1cccnc1)c1ncc[nH]1 | 1.179%
N#CC1(NC(=O)CN2CCn3ccnc3C2)CCCC1 | 7.717%
N#Cc1ccc(S(=O)(=O)CC(N)=O)c(Cl)c1 | -2.178%
NCc1cccc2cc[nH]c12 | 64.15%
Cc1cccnc1CCN | 4.701%
OCc1cc(F)cc(N2CCOCC2)c1 | 5.025%
Cc1c[nH]c(C(=O)NC2COc3ccccc3C2)n1 (configuration not stated) | 52.64%
C[C@@H]1CN(C(=O)CCc2ccnn2C)C[C@H](C)O1 | 8.975%
Cn1ncc(C(=O)OC2CCOC2)c1-n1cccc1 (configuration not stated) | -0.9537%
NC1CCN(Cc2cc(O)c3cc(F)ccc3n2)C1 (configuration not stated) | 0.1812%
Cc1cccc(Cl)c1OCCN | 55.44%
CCNC(=O)N(C)C(C)c1cnn(C)c1 (configuration not stated) | 3.154%
CN1CCCN(c2nc3ccccc3cc2CO)CC1 | 39.32%
CCS(=O)(=O)NCCOc1ccc2c(c1)OCO2 | 60.4%
CN(C)S(=O)(=O)N1CCC(C(=O)N2CCCCC2)CC1 | 25.8%
CCC(=O)NCC(=O)NC(CC)c1nc(C)no1 (configuration not stated) | 6.28%
O=C(CCNC(=O)c1ccco1)NC1CCS(=O)(=O)C1 (configuration not stated) | 5.16%
CCC(CC)(CN)C(=O)N1CCOC(C)(C)C1 | -14.32%
Cc1ncn(CC(=O)Nc2ccccc2F)c(=O)c1C | -8.503%
CC1COCCN1Cc1cc(=O)n(C)c(=O)n1C (configuration not stated) | -7.066%
CCOc1ccccc1[C@@H](C)N | 24.24%
O=C(NCC(O)c1ccsc1)C1=CCCCO1 (configuration not stated) | 33.47%
CNCC(O)c1cccnc1 (configuration not stated) | -2.347%
CCSc1nnc(-c2nonc2NC(C)=O)n1CC | -3.128%
Cc1nn(CCO)c(NCc2cscn2)c1C | 5.76%
COc1cc(OC)cc(N2CCCNCC2)c1 | 71.57%
O=C(CCOc1cccc(F)c1)NCC1CCCO1 (configuration not stated) | 38.93%
O=C1NC[C@@H]2CNCC[C@H]12 | 10.54%
Cc1ccc(C(=O)NCc2ccnc(N(C)C)c2)cn1 | 20.74%
CN1CCN(C(=O)C2CC2)c2ccccc2C1 | 4.853%
O=C(CNC(=O)c1ccccc1)NCc1ccncc1 | -11.6%
O=S(=O)(NCC(O)COCc1ccco1)c1cccs1 (configuration not stated) | 37.16%
COCc1nc(C)c(C(=O)NCC(=O)C(C)C)s1 | 17.39%
COCCC(=O)NCC(O)c1c(Cl)cccc1Cl (configuration not stated) | 11.16%
COCCNC(=O)c1cc(-c2ccccc2F)no1 | 79.06%
CN(CCN1CCCC1=O)C(=O)c1ccc(C#N)cc1 | 2.419%
COC(=O)N1CCCC(NC2CCOCC2)C1 (configuration not stated) | 0.113%
CCOC(=O)C(C)Nc1ccc2c(c1)CCCC(=O)N2 (configuration not stated) | 29.36%
CCCn1cc(C)c(N)n1 | 13.52%
CC(=O)N1CCN(Cc2nc(N)nc(N(C)C)n2)CC1 | -6.361%
O=C(Cn1cnnn1)N(CC1CCOC1)C1CC1 (configuration not stated) | 3.868%
NC1CCCN(c2noc(-c3ccccc3)n2)CC1 (configuration not stated) | -21.71%
COCC1(CNC(=O)NCCCF)CCC1 | 11.65%
Cc1ocnc1CNC(=O)CN(C)C(=O)c1cccs1 | 4.607%
O=C(CCNCc1sccc1Cl)NCc1cccnc1 | -0.6379%
O=C(CNc1ccccc1F)NC1CC1 | 5.147%
COCC1(N(C)CCC(=O)Nc2cccnc2)CC1 | 16.78%
CCN(CCO)S(=O)(=O)Cc1ccccc1Cl | 9.334%